Experimental data: PubChem BioAssay AID652272 (Drosophila RNAi Screening Center, 2013)
The screen tested about 21,000 reagents; this is an unselected part of those with a known target gene and a result. Of all reagents, 503 (2.4%) were called active. 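Raw plate light values, not normalised; calls rest on replicate z-scores that were not deposited; hits include reporter decreases as well as increases.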 Names joined by + are all predicted targets of the reagent. Reagent sequences are not shown. Not stated in the record: the amount of reagent, the time to read-out.

Assay: 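Genes whose knock-down decreases or increases Hedgehog reporter output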 (primary screen)
Cell system: Drosophila clone 8 (Cl8) cells
Knock-down reagent: long dsRNA against Drosophila genes
Detection: 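Plate reader light from a firefly reporter under a ptc promoter fragment that responds to Hedgehog, with Renilla light as transfection reference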
Direction: firefly Hh reporter signal: higher = more ptc reporter light; Renilla reference signal: higher = more Renilla control light
Active means: 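Hit when the z-score averaged over two replicates is under -2 or over +3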
Calls: active = hit: reporter lowered or raised; inactive = not a hit

| Gene | amplicon | firefly Hh reporter signal, replicate 1 | firefly Hh reporter signal, replicate 2 | firefly Hh reporter signal, replicate 3 | Renilla reference signal, replicate 1 | Renilla reference signal, replicate 2 | Call |
| --- | --- | --- | --- | --- | --- | --- | --- |
| CG8087 | DRSC16375 | 1.12e5 | 1.27e5 | – | 4884 | 3293 | inactive |
| CG6428 | DRSC18402 | 84133 | 1.54e5 | – | 2885 | 5677 | inactive |
| Vps13D | DRSC09818 | 51536 | 42547 | 38817 | 6004 | 3175 | inactive |
| Vps13D | DRSC09819 | 45432 | 54780 | 53657 | 5796 | 3904 | inactive |
| onecut | DRSC17175 | 85491 | 2.22e5 | – | 3490 | 8293 | inactive |
| Eo | DRSC20187 | 1.00e5 | 2.26e5 | – | 1194 | 9530 | active |
| CG3942 | DRSC15525 | 65170 | 1.41e5 | – | 1404 | 3746 | inactive |
| ida | DRSC08163 | 76902 | 49608 | – | 2355 | 3669 | inactive |
| CG4907 | DRSC15673 | 5.53e5 | 74970 | – | 29842 | 2477 | inactive |
| MFS12 | DRSC07268 | 77132 | 33978 | – | 2842 | 1334 | inactive |
| Nep1 | DRSC18388 | 84235 | 71381 | – | 1856 | 1873 | inactive |
| Nep1 | DRSC18389 | 32236 | 42218 | – | 1383 | 2258 | inactive |
| mRpL55 | DRSC14764 | 4.39e5 | 83297 | – | 24012 | 2151 | inactive |
| CG6441 | DRSC02957 | 1.10e5 | 48002 | – | 2841 | 4829 | inactive |
| CR11235 | DRSC20480 | 87300 | 1.47e5 | – | 3395 | 6551 | inactive |
| bdl | DRSC00271 | 1.04e5 | 44976 | – | 5434 | 2459 | inactive |
| CG14985 | DRSC08078 | 89271 | 2.15e5 | – | 6009 | 8019 | inactive |
| CG14985 | DRSC08443 | 1.03e5 | 51440 | – | 3329 | 4369 | inactive |
| PolA2 | DRSC16641 | 76961 | 1.22e5 | – | 3171 | 3936 | inactive |
| Ssl2 | DRSC14395 | 1.93e5 | 1.67e5 | – | 6181 | 3556 | inactive |
| CG17959 | DRSC18142 | 96192 | 2.65e5 | – | 3852 | 8944 | inactive |
| Rab8 | DRSC11261 | 1.14e5 | 88377 | – | 4193 | 3859 | inactive |
| S6kII | DRSC20645 | 1.04e5 | 1.02e5 | – | 2455 | 2678 | inactive |
| NFAT | DRSC18991 | 4.19e5 | 1.07e5 | – | 28407 | 3729 | inactive |
| NFAT | DRSC19393 | 1.13e5 | 3.19e5 | – | 3505 | 13248 | inactive |
| Ir52b | DRSC06263 | 89555 | 41012 | – | 2436 | 1379 | inactive |
| PolE4 | DRSC04105 | 1.01e5 | 80924 | – | 1612 | 7419 | inactive |
| DptB | DRSC06001 | 1.41e5 | 45400 | – | 3488 | 2194 | inactive |
| VhaM9.7-c | DRSC08204 | 1.05e5 | 54343 | – | 4402 | 2214 | inactive |
| Cat | DRSC11110 | 90377 | – | – | 3093 | 1917 | inactive |
| Hph | DRSC12164 | 1.12e5 | 1.31e5 | – | 4624 | 4675 | inactive |
| Hph | DRSC12251 | 63499 | 90521 | – | 2640 | 3094 | inactive |
| CG7829 | DRSC16322 | 84326 | 1.13e5 | – | 2437 | 4792 | inactive |
| CG34256 | DRSC09582 | 4.14e5 | – | – | 7093 | – | inactive |
| CG34029 | DRSC03909 | 1.31e5 | 2.43e5 | – | 3802 | 11296 | inactive |
| CG11815 | DRSC08209 | 81702 | 32154 | – | 2608 | 2202 | inactive |
| CG13516 | DRSC04159 | 1.51e5 | 77408 | – | 3716 | 6265 | inactive |
| CG4424 | DRSC15576 | 91568 | 55244 | – | 3773 | 2368 | inactive |
| CG6023 | DRSC19970 | 64408 | 71034 | – | 1722 | 1768 | inactive |
| CG32055 | DRSC10666 | 87553 | 78344 | – | 4161 | 3113 | inactive |
| Polr3F | DRSC15785 | 6.10e5 | 1.91e5 | – | 31565 | 4184 | inactive |
| Or49b | DRSC07494 | 80245 | 52128 | – | 2076 | 3749 | inactive |
| CG12725 | DRSC19501 | 78151 | 2.33e5 | – | 1316 | 10226 | inactive |
| CG5808 | DRSC14124 | 1.15e5 | 56656 | – | 5217 | 2973 | inactive |
| azot | DRSC06051 | 85478 | 46115 | – | 2128 | 4181 | inactive |
| CG12009 | DRSC08217 | 94059 | 60104 | – | 4107 | 2473 | inactive |
| Oli | DRSC02866 | 72001 | 1.06e5 | – | 2840 | 3591 | inactive |
| not | DRSC11378 | 1.06e5 | 44848 | – | 3952 | 1795 | inactive |
| wor | DRSC03637 | 80688 | 53597 | – | 2364 | 4869 | inactive |
| Gr64f | DRSC08447 | 79818 | 60984 | – | 2378 | 4242 | inactive |
| spas | DRSC15929 | 1.20e5 | 61449 | – | 4981 | 2464 | inactive |
| CG13339 | DRSC06373 | 65485 | 62492 | – | 1584 | 4374 | inactive |
| SLIRP1 + anox | DRSC20542 | 1.30e5 | 1.21e5 | – | 3115 | 3090 | inactive |
| CG12516 | DRSC14524 | 1.42e5 | 1.25e5 | – | 5465 | 4444 | inactive |
| CG6567 + CG4565 | DRSC15599 | 54208 | 1.05e5 | – | 1641 | 2986 | inactive |
| CG12541 | DRSC17483 | 5.19e5 | 1.68e5 | – | 27697 | 3168 | inactive |
| CG12541 | DRSC17839 | 81619 | 2.31e5 | – | 2480 | 8723 | inactive |

Active calls (from the list above):
| Gene | amplicon | firefly Hh reporter signal, replicate 1 | firefly Hh reporter signal, replicate 2 | firefly Hh reporter signal, replicate 3 | Renilla reference signal, replicate 1 | Renilla reference signal, replicate 2 | Call |
| --- | --- | --- | --- | --- | --- | --- | --- |
| Eo | DRSC20187 | 1.00e5 | 2.26e5 | – | 1194 | 9530 | active |
